According to PubChem BioAssay AID493014 (National Center for Advancing Translational Sciences (NCATS), 2011):
The other results are listed elsewhere or left out. Further columns of the screen follow, without active or inactive calls. Compounds called inactive in the main read-out are mostly missing here. Potencies come from curve fits of mixed quality, noted in brackets.

Assay: qHTS Assay to Find Inhibitors of Chronic Active B-Cell Receptor Signaling
Details: ABC-DLBCL IkBa-CBG/CBR reporter, luminescence ratio (green luciferase fused to IkBa over red control in TMD8 lymphoma cells), 4 h
How it was run: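 Compounds up to 46 uM were incubated four hours with TMD8 cells whose green CBG68 luciferase is fused to IkappaBalpha; red CBR luminescence normalised the signal, and concentration-effect curves were fitted to fusion, red and ratio data.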

[1] = measured here: CBR red luminescence, cell number
[2] = measured here: IkBa-CBG green luminescence

Structure (SMILES) | AC50 [1] | AC50 [2]
O=c1c2oc3ccccc3c2[nH]c(=S)n1-c1ccc(F)cc1 | 10 µM [falling, partial curve] | –
COc1ccc(-c2c(C#Cc3ccccc3)c3ccccc3n2C)cc1 | 1.26 µM [rising, full curve, poor fit] | –
O=C(Cn1ncc2c(=O)oc3ccccc3c21)NCC1COc2ccccc2O1 (stereo not drawn) | 5.17 µM [falling, full curve, poor fit] | –
CC(=O)Nc1ccc(NC(=O)CSc2nnc(-c3cccs3)n2N)cc1 | 3.66 µM [rising, partial curve, poor fit] | –
CCCN1C(=O)C(Cc2nc3ccccc3c(=O)n2C)c2ccccc21 (stereo not drawn) | 35.5 µM [falling, single point] | –
COc1ccccc1N1CC(O)=C(c2nc3ccccc3c(=O)[nH]2)C1=N | 6.51 µM [falling, partial curve, poor fit] | –
CCc1nnc(N/N=C/c2ccccc2F)n1N | 35.5 µM [falling, single point] | –
CCOc1ccc2cc(C(=O)c3ccccc3)c(=O)oc2c1 | 10.3 µM [rising, partial curve, poor fit] | –
COc1ccc(S(=O)(=O)c2ccc(O)cc2)cc1 | 5.17 µM [rising, single point] | –
O=C(COc1ccccc1)NCC1COc2ccccc2O1 (stereo not drawn) | 11.2 µM [rising, partial curve] | –
CCOC(=O)C1=C(N)Oc2c(c(=O)[nH]c3ccccc23)C1c1ccccc1 (stereo not drawn) | 10 µM [falling, partial curve] | –
CCOc1ccccc1C1C2CCCCC2(O)CCN1C(=O)c1cccs1 (stereo not drawn) | 18.4 µM [falling, single point] | 16.4 µM [rising, partial curve, poor fit]
C#CCOCCOCCOCCNc1nc(N2CCN(C(=O)CCCCCCCCCCNC(=O)[C@@H](CCSC)n3cc(CCO)nn3)CC2)nc(N2CCN(C(=O)CCCCCCCCCCNC(=O)[C@H](CCSC)n3cc(CCO)nn3)CC2)n1 | 6.51 µM [falling, single point] | 3.66 µM [rising, partial curve, poor fit]
COc1ccc(-c2noc(C3CCCN(S(=O)(=O)c4ccc(C)c(Cl)c4)C3)n2)cc1OC (stereo not drawn) | 35.5 µM [rising, single point] | –
Cc1ccc(C(=O)N/N=C/c2ccc(-c3cccc(C(F)(F)F)c3)o2)cn1 | – | 11.2 µM [falling, single point]
CCN1C(=O)c2ccccc2Sc2ccc(C(=O)NCCC(C)C)cc21 | 35.5 µM [falling, partial curve, poor fit] | –
C=C(C)CNC(=S)NN=C1c2ccccc2-c2ccccc21 | 3.16 µM [rising, full curve] | –
FC(F)(F)c1ccc(Oc2ccc3cc(Br)ccc3c2)nc1 | 6.51 µM [rising, partial curve, poor fit] | –
COc1ccc2c(c1)OC/C(=C/c1cccs1)C2=O | 32.6 µM [falling, single point] | –
Cc1ccc(NC(=O)Nc2ccc3c(c2)CCC3)cc1 | 0.282 µM [rising, full curve, poor fit] | –

Structure (SMILES) | AC50 [1] | AC50 [2]
Cc1cc(C(=O)N/N=C/c2cn[nH]c2-c2ccccc2)cs1 | 18.4 µM [falling, single point] | –
Cc1cc(C(=O)NNC(=O)/C=C/c2ccc(F)cc2)c(C)o1 | 1 µM [falling, full curve] | –
COC(=O)c1sccc1NC(=O)Nc1cccc(C)c1 | 3.55 µM [falling, full curve] | –
CCOC(=O)CNC(=O)N1CCc2ccc(NC(=O)c3ccccc3OC)cc2C1 | – | 12.6 µM [falling, partial curve, poor fit]
COC(=O)C1=C(C)NC2=C(C(=O)C(C(=O)OC)C(c3ccc(OC)cc3)C2)C1c1ccccn1 (stereo not drawn) | 5.62 µM [falling, single point] | –
CCCn1c(NCc2ccco2)nc2c1c(=O)n(C)c(=O)n2C | 0.651 µM [falling, full curve, poor fit] | 3.26 µM [rising, partial curve, poor fit]
CCOC(=O)c1c(NC(=O)COc2ncnc3ccccc23)sc(C)c1CC | 29.1 µM [falling, single point] | –
CC(C)c1cc(C(N)=O)c(NC(=O)c2cccc(COc3ccc(Br)cc3)c2)s1 | 1.03 µM [rising, full curve] | –
O=C(N/N=C/c1cccs1)c1ccc2ncccc2c1 | 11.2 µM [falling, single point] | –
CCN=c1scc(-c2ccccc2)n1/N=C/c1ccccn1 | 5.8 µM [rising, partial curve] | 32.6 µM [falling, partial curve, poor fit]
CCC(=O)NCCc1nc2cc(NC(=O)c3cccc([N+](=O)[O-])c3)ccc2n1C | 6.31 µM [falling, partial curve, poor fit] | –
Cc1ccc(CNC(=O)C2CCC(CNS(=O)(=O)c3cccs3)CC2)cc1 (stereo not drawn) | 5.62 µM [rising, partial curve, poor fit] | –
CCS(=O)(=O)N1Cc2ccccc2CC1C(=O)Nc1nc2c(C)cccc2s1 (stereo not drawn) | 29.1 µM [falling, single point] | –
CC(C)(C)OC(=O)N1CC=C2C(C#N)=C(N)C(C#N)(C#N)C(c3cccs3)C2C1 (stereo not drawn) | 29.1 µM [falling, single point] | –
Cc1[nH]c2ccccc2c1C(=O)CSc1nc2ccccc2c(=O)n1-c1ccccc1F | 3.55 µM [rising, full curve, poor fit] | –
CCc1c(O)nc(N2CCN(Cc3ccccc3)CC2)[nH]c1=O | 23.1 µM [rising, single point] | –
Cc1cn(-c2cc(NC(=O)c3ccc(C)c(NC(=O)c4cccc(-c5cn[nH]c(=O)c5)c4)c3)cc(C(F)(F)F)c2)cn1 | 15.8 µM [falling, single point] | –
Cc1onc(-c2ccccc2)c1C(=O)OCC(=O)NCc1ccc(F)cc1 | 11.2 µM [rising, single point] | –
COc1ccc(OC)c(NC(=O)c2nnn(Cc3ccc(Br)cc3F)c2N)c1 | 5.17 µM [rising, full curve, poor fit] | –
COc1ccccc1NCCC(=O)OCC(=O)Nc1cccc(S(=O)(=O)N(C)C)c1 | 0.146 µM [falling, full curve, poor fit] | –

Structure (SMILES) | AC50 [1] | AC50 [2]
COc1ccc(/C=C/C(=O)c2ccc(NS(=O)(=O)c3ccc(C)cc3)cc2)cc1O | 18.4 µM [falling, partial curve] | –
COc1cc(OC)cc(C(=O)NNC(=O)c2nn(C)c(=O)c3ccccc23)c1 | 11.6 µM [rising, partial curve] | –
Clc1cccc(-c2noc3ncnc(Nc4ccc5c(c4)OCO5)c23)c1 | 6.31 µM [rising, single point] | –
CN1CCc2c(OCC(=O)N3N=C(c4cccs4)CC3c3ccc(F)cc3)cccc2C1=O (stereo not drawn) | 29.1 µM [falling, single point] | 2.31 µM [falling, full curve]
CC(=O)N(Cc1ccccc1)c1ccccc1C(=O)O | 0.1 µM [rising, full curve, poor fit] | –
COc1cccc(N2CCN(C(=O)CCNS(=O)(=O)c3ccc4c(c3)c(=O)n(C)c(=O)n4C)CC2)c1 | 35.5 µM [falling, partial curve, poor fit] | –
COc1cc(NC(=O)CC(C)n2ccnc2)cc(OC)c1 (stereo not drawn) | 3.98 µM [rising, partial curve, poor fit] | –
CCC(C)Sc1ccc(-c2nc3ccccn3c2NCc2ccccc2)cc1OC (stereo not drawn) | 29.1 µM [falling, single point] | 32.6 µM [rising, partial curve, poor fit]
Cc1ccc(S(=O)(=O)N2CCOCC2)cc1C(=O)OCC(=O)N1CCc2ccccc2C1 | 3.66 µM [falling, single point] | –
O=[N+]([O-])c1ccc(OCC2CC(c3ccccc3)=NO2)cc1 (stereo not drawn) | 0.2 µM [rising, full curve, poor fit] | –
CCCCC(=O)NC(c1ccccc1Cl)c1ccc2cccnc2c1O (stereo not drawn) | 3.55 µM [falling, full curve] | –
Cc1nc(-c2cccc(Br)c2)ccc1C(=O)O | – | 3.16 µM [rising, full curve, poor fit]
O=C(CSc1nc(-c2cccs2)nc2ccccc12)NC1CCS(=O)(=O)C1 (stereo not drawn) | 0.58 µM [falling, full curve, poor fit] | –
Cc1cccc(/C(N)=N/OC(=O)c2ccoc2C)c1 | 35.5 µM [falling, single point] | –
COc1ccc(N2CCN(C(=O)COc3ccc4c(C)cc(=O)oc4c3)CC2)cc1 | 12.6 µM [rising, partial curve, poor fit] | –
Cc1csc2nc(CSc3nc4ccccc4o3)cn12 | 17.8 µM [falling, partial curve] | 25.1 µM [falling, single point]
Cc1ccc(S(=O)(=O)N2CCOCC2)cc1C(=O)Nc1ccc(-c2cn3ccsc3n2)cc1 | 16.4 µM [falling, single point] | –
CN(C)c1ccc(/C=C(\C#N)c2ccccn2)cc1 | 6.51 µM [falling, partial curve] | –
O=C(NCCc1ccccc1)c1ccc2c(c1)OCCO2 | 1.41 µM [falling, full curve] | –
Oc1cccc2ccc(/C=C/c3ccc(Br)s3)nc12 | 7.94 µM [falling, partial curve] | 17.8 µM [falling, partial curve, poor fit]

One compound at a time, from the list above. Values in the order: AC50 [1] | AC50 [2]
`CCN1C(=O)c2ccccc2Sc2ccc(C(=O)NCCC(C)C)cc21` is listed with 35.5 µM [falling, partial curve, poor fit] | –
`CN1CCc2c(OCC(=O)N3N=C(c4cccs4)CC3c3ccc(F)cc3)cccc2C1=O` (stereo not drawn) is listed with 29.1 µM [falling, single point] | 2.31 µM [falling, full curve]
